In PubChem BioAssay AID2551 (National Center for Advancing Translational Sciences (NCATS), 2010):
The campaign covered roughly 310,000 compounds. About 17,000 (5.5%) were called active. Inconclusive means that the source gave no clear call. Such entries were picked first, then a sample of the others. The call rests on the fitted dose curve; in most records, active means well fitted inhibition curve with a large enough effect; inconclusive means small, poorly fitted or top-dose-only effect, or effect the other way; inactive means no such curve, though single readings can be large or run the other way. A potency beside an inconclusive call is a rough fit, not a confirmed value.

Amino acid sequences for entries named in this document (tags omitted). A change or cut given only in a name is not applied to a line headed by its entry.
UniProt P51450: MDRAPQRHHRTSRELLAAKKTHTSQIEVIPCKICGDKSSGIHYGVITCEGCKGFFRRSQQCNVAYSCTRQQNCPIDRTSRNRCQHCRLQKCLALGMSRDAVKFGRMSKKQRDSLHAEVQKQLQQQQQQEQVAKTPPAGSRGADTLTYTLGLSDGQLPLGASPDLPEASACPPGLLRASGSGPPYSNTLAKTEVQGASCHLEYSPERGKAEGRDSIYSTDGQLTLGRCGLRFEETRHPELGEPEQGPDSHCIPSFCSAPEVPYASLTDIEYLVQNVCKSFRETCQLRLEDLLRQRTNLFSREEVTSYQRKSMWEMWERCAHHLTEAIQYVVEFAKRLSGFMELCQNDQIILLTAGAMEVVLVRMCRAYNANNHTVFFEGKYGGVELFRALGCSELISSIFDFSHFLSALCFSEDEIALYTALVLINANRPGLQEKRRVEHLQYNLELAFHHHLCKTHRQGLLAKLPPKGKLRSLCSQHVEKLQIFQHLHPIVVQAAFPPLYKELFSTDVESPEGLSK

biological target: Nuclear receptor ROR-gamma (Mus musculus) (UniProt P51450); assay: qHTS for inhibitors of ROR gamma transcriptional activity; conditions: Drosophila S2 Gal4-RORgamma UAS-luciferase reporter, 20 h; activity change, negative = inhibition: at 53.6 µM (top of the series); further: nearly all actives have a fitted effect of over 60% in size
How it was run: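 Drosophila Schneider cells stably carrying a metallothionein-driven Gal4 DBD–ROR gamma fusion and a UAS-Photinus luciferase reporter were exposed to compound for 1 hr, then induced with copper sulfate (700 uM final) for 20 hr at ambient temperature before luminescence reading.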
On the % scale 0 is the no-effect control and ±100 the full control effect; potency means the concentration at half of the fitted maximal effect.

Compound | activity change, negative = inhibition | Potency
N/C(=N\OC(=O)c1ccc2c(c1)OCO2)c1ccc(Cl)cc1 | inactive: 25.1% | 
Cc1ccc(C(=O)c2ccccc2C(=O)OCC(=O)NCCc2ccc(Cl)cc2Cl)cc1 |  | inconclusive: 22.4 µM [activator, single point]
COC(=O)/C(Cc1cc(Br)c(OC)c(Br)c1O)=N/O | inactive: -2.41% | 
CC(C)c1cccc2nc3c(c([Si](C)(C)C)c12)Cn1c-3cccc1=O |  | inconclusive: 7.08 µM [activator, partial curve]
Cc1c(NC(=S)N/N=C/c2cc([N+](=O)[O-])ccc2O)c(=O)n(-c2ccccc2)n1C |  | inconclusive: 10 µM [inhibitor, partial curve, poor fit]
COc1cc(C(=S)N2CCOCC2)ccc1OS(=O)(=O)c1ccccc1[N+](=O)[O-] |  | inconclusive: 12.6 µM [activator, partial curve, poor fit]
COCCCNCCCOc1ccc(Cl)cc1C(C)(C)C |  | inconclusive: 11.2 µM [inhibitor, single point]
COc1ccc(-c2cc(C(F)F)n3ncc(C(=O)N4CCCCC4)c3n2)cc1 |  | inconclusive: 11.2 µM [activator, single point]
O=C(CCc1ccccc1)n1nc(-c2ccccc2)nc1NCc1ccco1 |  | inconclusive: 31.6 µM [activator, single point]
Cc1cnc(Nc2nc3ccccc3o2)nc1C(=O)Nc1cccc(C(F)(F)F)c1 |  | inconclusive: 2 µM [inhibitor, partial curve, poor fit]
O=C(Cc1cccs1)Nc1nnc(SCc2ccc(F)cc2)s1 |  | inconclusive: 7.08 µM [inhibitor, partial curve]
CCNC(=S)N/N=C(\C)c1cccc([N+](=O)[O-])c1 |  | active: 3.98 µM
Fc1ccccc1COc1ccccc1/C=N/Nc1nc(N2CCCC2)nc(N2CCCC2)n1 |  | active: 6.31 µM
Cc1ccccc1-c1nccc(NCc2cccs2)n1 |  | inconclusive: 0.0316 µM [activator, full curve]
COc1cc(OC)c(NS(=O)(=O)c2cc(C(=O)OC(C)C(=O)NC3CC3)c(Cl)cc2Cl)cc1Cl (centres undefined) |  | inconclusive: 35.5 µM [activator, single point]
C/C(=N/NC(=O)c1ccco1)c1cccc(NC(=O)c2ccc(C)o2)c1 | inactive: -10.2% | 
O=C(CSc1ncnc2sc3c(c12)CCCC3)c1ccco1 |  | inconclusive: 35.5 µM [inhibitor, single point]
Cc1ccc(-c2nn(-c3ccccc3)cc2/C=N/NC(=O)c2ccncc2)o1 |  | active: 2.82 µM
COc1ccc(OC)c(Nc2nc(N)nc(CSc3nnc(N)s3)n2)c1 | inactive: -28.1% | 

2 of the compounds above, as comma-separated lines:
Compound,"activity change, negative = inhibition",Potency
Cc1cnc(Nc2nc3ccccc3o2)nc1C(=O)Nc1cccc(C(F)(F)F)c1,,"inconclusive: 2 µM [inhibitor, partial curve, poor fit]"
Cc1ccc(-c2nn(-c3ccccc3)cc2/C=N/NC(=O)c2ccncc2)o1,,active: 2.82 µM
